PubChem BioAssay AID1259308, NCATS | 2017

- Screen: 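Genes whose loss raises luciferase production in HEK293 cells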 (primary screen)
- System: human HEK293 embryonic kidney cells stably expressing firefly luciferase (HEK-CMV-Luc2-Hygro)
- Knock-down reagent: single siRNA against human genes, 0.8 pmol siRNA per well
- Duration: 72 h
- Measured: 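Luciferase light (ONE-Glo) measured on one replicate plate set and viability (CellTiter-Glo) on the other, scaled to a negative control siRNA, with robust z-scores and luciferase per cell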
- Reading the numbers: total luciferase, z-score and total luciferase, % of control: higher = more reporter protein produced; luciferase per cell, z-score: higher = more reporter output per viable cell; viable cells, % of control: higher = more viable cells
- Call rule: 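An siRNA counts as active if its total luciferase robust z-score exceeds 3; genes with two or more such siRNAs out of three were retested with fresh siRNAs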
- Meaning of the calls: active = raised luciferase; inactive = no rise
In all, the deposit lists about 59,000 reagents; below is a random part of them. About 1,510 of them (2.6%) count as active. 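Calls use total luciferase alone and ignore viability, so some active siRNAs may act by altering cell number.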 Entries without a mark were called inactive. The numbers tell different reagents against one gene apart.

no.	gene	reagent	total luciferase, z-score	total luciferase, % of control	luciferase per cell, z-score	viable cells, % of control
1	SACK1E (scaffolding CK1 anchoring protein E)	1	0.945	101	0.234	106
2	SACK1E (scaffolding CK1 anchoring protein E)	2	-0.739	67.2	-0.497	85.6
3	SACK1E (scaffolding CK1 anchoring protein E)	3	0.42	90.2	-0.507	115
4	COP1P1 (COP1 pseudogene 1)	1	-0.578	70.4	-0.845	98.3
5	COP1P1 (COP1 pseudogene 1)	2	1.93	120	1.35	94.2
6	COP1P1 (COP1 pseudogene 1)	3	1.06	103	1.68	73.9
7	C19orf73 (chromosome 19 open reading frame 73)	1	0.881	99.4	1.14	82.2
8	C19orf73 (chromosome 19 open reading frame 73)	2	0.338	88.6	0.479	87.3
9	C19orf73 (chromosome 19 open reading frame 73)	3	-0.698	68	-0.95	97.6
10	ZNF575 (zinc finger protein 575)	1	-0.275	76.4	0.909	67.2
11	ZNF575 (zinc finger protein 575)	2	0.492	91.7	-0.18	107
12	ZNF575 (zinc finger protein 575)	3	-0.386	74.2	-1.13	112
13	NCAPG2 (non-SMC condensin II complex subunit G2)	1	-0.316	75.6	-0.292	91.2
14	NCAPG2 (non-SMC condensin II complex subunit G2)	2	0.112	84.1	0.131	90.8
15	NCAPG2 (non-SMC condensin II complex subunit G2)	3	-1.15	59.1	-1.31	93.1
16	ASB15 (ankyrin repeat and SOCS box containing 15)	1	-0.0455	81	0.269	84.3
17	ASB15 (ankyrin repeat and SOCS box containing 15)	2	0.0785	83.4	-0.274	100
18	ASB15 (ankyrin repeat and SOCS box containing 15)	3	0.692	95.6	0.543	92.6
19	TMEM106C (transmembrane protein 106C)	1	-0.252	76.9	1.1	64.3
20	TMEM106C (transmembrane protein 106C)	2	0.684	95.5	1.07	80.5
21	TMEM106C (transmembrane protein 106C)	3	-1.18	58.4	-1.13	87.8
22	SLITRK4 (SLIT and NTRK like family member 4)	1	-0.245	77	-0.316	93.5
23	SLITRK4 (SLIT and NTRK like family member 4)	2	-1.37	54.7	-1.32	86.5
24	SLITRK4 (SLIT and NTRK like family member 4)	3	-0.0544	80.8	0.0451	89.2
25	HCN4	1	-0.137	79.2	0.572	76.1
26	HCN4	2	-0.351	74.9	-0.615	98.4
27	HCN4	3	-0.694	68.1	-0.233	80.9
28	AP5S1 (adaptor related protein complex 5 subunit sigma 1)	1	-1.11	59.7	-0.195	70.3
29	AP5S1 (adaptor related protein complex 5 subunit sigma 1)	2	0.963	101	0.377	102
30	AP5S1 (adaptor related protein complex 5 subunit sigma 1)	3	-0.639	69.2	-0.755	94.3
31	ZSCAN5C (zinc finger and SCAN domain containing 5C)	1	0.528	92.4	0.624	87.6
32	ZSCAN5C (zinc finger and SCAN domain containing 5C)	2	0.221	86.3	0.825	77.6
33	ZSCAN5C (zinc finger and SCAN domain containing 5C)	3	-0.686	68.2	-0.96	98.2
34	GADD45B (growth arrest and DNA damage inducible beta)	1	-0.736	67.2	-1.35	107
35	GADD45B (growth arrest and DNA damage inducible beta)	2	-0.694	68.1	-1.42	111
36	GADD45B (growth arrest and DNA damage inducible beta)	3	-0.74	67.2	-0.802	92.7
37	IL10RA (interleukin 10 receptor subunit alpha)	1	-0.0148	81.6	0.191	86.7
38	IL10RA (interleukin 10 receptor subunit alpha)	2	-0.649	69	-0.663	91.8
39	IL10RA (interleukin 10 receptor subunit alpha)	3	1.18	105	1.38	81.9
